Results published in article PMC10334471, “Tumor-targeted dual-action NSAID-platinum(IV) anticancer prodrugs” (Inorganic Chemistry Frontiers, 2023).

Tested on: colorectal cancer cell lines
Experiment: Cellular platinum levels by ICP-MS
Assay type: cell-based
Conditions: 10 μM, 2 h

With `CC(=O)[O][Pt-2]12([O]C(C)=O)([NH2+][C@@H]3CCCC[C@H]3[NH2+]1)[O]C(=O)C(=O)[O]2` [Ox(OAc)2] the “Cellular uptake compared to oxaliplatin” value (ICP-MS) was “distinctly decreased cellular uptake”.

`CC(=O)Oc1ccccc1C(=O)[O][Pt-2]12([O]C(C)=O)([NH2+][C@@H]3CCCC[C@H]3[NH2+]1)[O]C(=O)C(=O)[O]2` [OxAsaOAc, (OC-6-44)-acetato(2-acetoxybenzoato)[(1R,2R)-1,2-cyclohexanediamino]oxalatoplatinum(IV)] was tested, and the “Fold higher intracellular platinum levels than Ox(OAc)2” value (in most of the tested cell lines) was ~2 fold.
